Results published in paper PMC3861647.
No constants are given. Whether binding was seen depends on the method and setting. A result given as binding can be weak or reduced; the word gives no strength. Sequences can lack the tags named with a protein.

Molecular target: T1, MBP-RU678 (human)
T1 sequence: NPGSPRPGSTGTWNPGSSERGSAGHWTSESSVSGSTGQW
Assay: ELISA; fibrinogen (0.1 μM), MBP-fused fibrinogen fragments or casein blocking reagent immobilised in 96-well plates overnight at 4 °C; FLAG-tagged Srr-BR in PBS-T added, 1 h at 37 °C; detected with mouse anti-FLAG antibody; both purified

| Substance | binding |
| --- | --- |
| FLAG-tagged binding region of Srr2 (FLAG-Srr2-BR) (Streptococcus agalactiae (strain COH1)) (domain or fragment) | binds |
| FLAG-tagged binding region of Srr1 (FLAG-Srr1-BR) (domain or fragment) | binds |
